Assay results taken from the supplement of paper PMC8288183.
± gives the standard deviation of the averaged measurements. The list shows a part of the results. Repeats are few or missing, and single values can be far off.

Biological target: T1, NSUN6 (UniProt Q8TEA1)
T1 sequence: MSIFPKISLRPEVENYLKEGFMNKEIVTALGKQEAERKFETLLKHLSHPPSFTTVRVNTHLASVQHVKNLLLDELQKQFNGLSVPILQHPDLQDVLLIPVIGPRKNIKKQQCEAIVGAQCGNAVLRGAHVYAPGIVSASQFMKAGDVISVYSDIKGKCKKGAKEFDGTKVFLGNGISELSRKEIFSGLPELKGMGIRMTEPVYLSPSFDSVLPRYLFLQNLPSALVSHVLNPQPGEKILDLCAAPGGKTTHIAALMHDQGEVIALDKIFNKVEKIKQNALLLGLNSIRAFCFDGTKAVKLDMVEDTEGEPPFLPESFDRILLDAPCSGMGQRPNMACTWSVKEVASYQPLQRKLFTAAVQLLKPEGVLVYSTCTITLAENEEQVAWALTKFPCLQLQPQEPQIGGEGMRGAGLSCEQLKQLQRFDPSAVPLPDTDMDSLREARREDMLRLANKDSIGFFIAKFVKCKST
Assay: m5C methylation level at the target C (C/(C+U) bisulfite reads) (fraction); higher = more methylation by NSUN6; extreme values may be limits of the assay
Conditions: HEK293T (wild-type)

[1] = parent substrate: substrate #1 (main figure)

| Sequence | m5C methylation level at the target C [1] | m5C methylation level at the target C (parent substrate: substrate #2) | m5C methylation level at the target C (parent substrate: substrate #3) | m5C methylation level at the target C (parent substrate: substrate #4) |
| --- | --- | --- | --- | --- |
| ACGACG | 0 | 0.0208 | 0.00115 | 0.000549 |
| GCUAUG | 0.000614 | 0.00226 | 0.00163 | 0.00271 |
| GCUUAU | 0 | 0.0101 | 0.0011 | 0.0026 |
| ACUUGA | 0.00125 | 0.00408 | 0 | 0 |
| GCGUCG | 0.00386 | 0 | 0.00278 | 0.00268 |
| ACCAUU | 0 | 0.0128 | 0.00149 | 0 |
| GCCUGA | 0.00183 | 0 | 0.000415 | 0.00129 |
| ACUCUU | 0 | 0.00501 | 0.00231 | 0.00173 |
| CCCUAC | 0.00105 | 0.00168 | 0 | 0.00127 |
| UCCCUG | 0.00161 | 0.002 | 0.0011 | 0 |
| CCGUAA | 0 | 0.000696 | 0.00128 | 0 |
| GCAAGU | 0 | 0 | 0.000495 | 0.00214 |
| CCUUUA | 0 | 0.00275 | 0.00112 | 0.00419 |
| GCUUCG | 0.00539 | 0 | 0.000508 | 0 |
| ACACUA | 0.00296 | 0 | 0.00688 | 0.00164 |
| UCGCAC | 0 | 0.00218 | 0 | 0.000402 |
| GCAGAA | 0.000898 | 0.0155 | 0.00727 | 0 |
| CCAUUC | 0 | 0 | 0.00063 | 0.00929 |
| UCAGGC | 0 | 0.00124 | 0.00241 | 0 |
| UCUGGU | 0 | 0.00801 | 0.00304 | 0.00174 |
| UCCACC | 0.00175 | 0 | 0.00205 | 0 |
| CCUUAC | 0.00154 | 0 | 0.000986 | 0 |
| GCGGUG | 0.00128 | 0.00625 | 0.00122 | 0.00158 |
| UCGUCU | 0.00536 | 0 | 0 | 0 |

Single records (already shown).
UCCCUG as listed: m5C methylation level at the target C [1]: 0.00161; m5C methylation level at the target C (parent substrate: substrate #2): 0.002; m5C methylation level at the target C (parent substrate: substrate #3): 0.0011; m5C methylation level at the target C (parent substrate: substrate #4): 0
ACUUGA as listed: m5C methylation level at the target C [1]: 0.00125; m5C methylation level at the target C (parent substrate: substrate #2): 0.00408; m5C methylation level at the target C (parent substrate: substrate #3): 0; m5C methylation level at the target C (parent substrate: substrate #4): 0
UCCACC as listed: m5C methylation level at the target C [1]: 0.00175; m5C methylation level at the target C (parent substrate: substrate #2): 0; m5C methylation level at the target C (parent substrate: substrate #3): 0.00205; m5C methylation level at the target C (parent substrate: substrate #4): 0
CCAUUC as listed: m5C methylation level at the target C [1]: 0; m5C methylation level at the target C (parent substrate: substrate #2): 0; m5C methylation level at the target C (parent substrate: substrate #3): 0.00063; m5C methylation level at the target C (parent substrate: substrate #4): 0.00929

(continued)

| Sequence | m5C methylation level at the target C [1] | m5C methylation level at the target C (parent substrate: substrate #2) | m5C methylation level at the target C (parent substrate: substrate #3) | m5C methylation level at the target C (parent substrate: substrate #4) |
| --- | --- | --- | --- | --- |
| CCUCGU | 0.0009 | 0 | 0 | 0.00186 |
| GCACAC | 0 | 0.00218 | 0.000485 | 0.00341 |
| ACAUGU | 0 | 0 | 0 | 0 |
| CCCGAU | 0 | 0 | 0 | 0 |
| ACAAAA | 0 | 0 | 0.000703 | 0 |
| CCUAAC | 0.00253 | 0 | 0 | 0 |
| GCCUCA | 0.000529 | 0 | 0 | 0.00162 |
| CCUACC | 0.000897 | 0 | 0.00102 | 0.000679 |
| UCGCGA | 0.00117 | 0.000965 | 0.00157 | 0.000542 |
| UCGGAA | 0 | 0.00906 | 0.00116 | 0.000507 |
| ACUUUC | 0 | 0 | 0.0017 | 0.000651 |
| CCGCGG | 0.000925 | 0 | 0.00208 | 0 |
| ACCAAC | 0 | 0.00126 | 0.000418 | 0.00145 |
| GCGUUU | 0.00144 | 0.00203 | 0.000408 | 0.000686 |
| UCCGGA | 0.00221 | 0.00253 | 0.00224 | 0.000668 |
| GCACCU | 0.00127 | 0 | 0.00152 | 0.00155 |
| UCUCGU | 0 | 0.00134 | 0.00353 | 0.00167 |
| CCUCUU | 0 | 0.00406 | 0.00823 | 0 |
| UCUCCA | 0.569 ± 0.018 | 0.139 | 0.594 | 0.652 |
| CCGGAA | 0.0013 | 0.00242 | 0.00126 | 0.00211 |
| UCGAAU | 0.00447 | 0.00219 | 0.00116 | 0.00125 |
| UCCUGA | 0.000466 | 0 | 0.000905 | 0 |
| ACUAGC | 0.00509 | 0.00105 | 0.000581 | 0.00385 |
| CCAUGG | 0.0093 | 0.00119 | 0.000598 | 0 |

| Sequence | m5C methylation level at the target C [1] | m5C methylation level at the target C (parent substrate: substrate #2) | m5C methylation level at the target C (parent substrate: substrate #3) | m5C methylation level at the target C (parent substrate: substrate #4) |
| --- | --- | --- | --- | --- |
| GCAUCU | 0.00421 | 0 | 0.00248 | 0 |
| GCAACU | 0 | 0 | 0.000528 | 0.000482 |
| UCAUAA | 0 | 0 | 0 | 0.00125 |
| GCCUUA | 0.0033 | 0.00457 | 0.00122 | 0.00127 |
| CCUGGC | 0.00257 | 0.00167 | 0.000678 | 0.000898 |
| GCCUUC | 0.00495 | 0 | 0.00431 | 0.00893 |
| ACUAUC | 0.000938 | 0 | 0.00202 | 0 |
| UCCGUG | 0.00181 | 0 | 0.0028 | 0.0018 |
| ACUGAU | 0.00108 | 0.00161 | 0.0018 | 0 |
| CCAGGU | 0.00118 | 0.00177 | 0 | 0 |
| UCCGUU | 0.000662 | 0 | 0 | 0 |
| ACCUAA | 0.000916 | 0.000946 | 0 | 0 |
| ACUAAU | 0.000749 | 0 | 0.000929 | 0.000462 |
| UCACGU | 0.000602 | 0.00251 | 0.00114 | 0.0082 |
| GCCGUA | 0 | 0.00333 | 0.00225 | 0.00232 |
| CCGGUA | 0.00206 | 0 | 0.00614 | 0.00371 |
| CCGCGU | 0 | 0.00108 | 0.000981 | 0.000558 |
| ACCCCU | 0.00124 | 0 | 0.000649 | 0.00322 |
| ACGUGA | 0 | 0.0081 | 0.00685 | 0.00298 |
| CCUUUG | 0.0015 | 0.00242 | 0.000973 | 0.00336 |
| GCACCG | 0 | 0 | 0.00192 | 0.000459 |
| ACCGGU | 0 | 0.00527 | 0 | 0 |
| GCUUGG | 0.00498 | 0 | 0.000955 | 0.00136 |
| ACCUGC | 0.000684 | 0.00227 | 0.00193 | 0.0144 |
